Test results as given in article PMC10018365, “Cryo-EM structure of the fully assembled Elongator complex” (Nucleic Acids Research, 2023).
These are yes or no findings as the source states them, for the method shown. Some entries that bind do so weakly or less than the wild type. One block for each binder: values may come before it.

Chains of the proteins cited; added tags and fusions are not shown. Lines headed by an entry give the natural chain unless they say otherwise; changes in a name come on top.
UniProt O95163: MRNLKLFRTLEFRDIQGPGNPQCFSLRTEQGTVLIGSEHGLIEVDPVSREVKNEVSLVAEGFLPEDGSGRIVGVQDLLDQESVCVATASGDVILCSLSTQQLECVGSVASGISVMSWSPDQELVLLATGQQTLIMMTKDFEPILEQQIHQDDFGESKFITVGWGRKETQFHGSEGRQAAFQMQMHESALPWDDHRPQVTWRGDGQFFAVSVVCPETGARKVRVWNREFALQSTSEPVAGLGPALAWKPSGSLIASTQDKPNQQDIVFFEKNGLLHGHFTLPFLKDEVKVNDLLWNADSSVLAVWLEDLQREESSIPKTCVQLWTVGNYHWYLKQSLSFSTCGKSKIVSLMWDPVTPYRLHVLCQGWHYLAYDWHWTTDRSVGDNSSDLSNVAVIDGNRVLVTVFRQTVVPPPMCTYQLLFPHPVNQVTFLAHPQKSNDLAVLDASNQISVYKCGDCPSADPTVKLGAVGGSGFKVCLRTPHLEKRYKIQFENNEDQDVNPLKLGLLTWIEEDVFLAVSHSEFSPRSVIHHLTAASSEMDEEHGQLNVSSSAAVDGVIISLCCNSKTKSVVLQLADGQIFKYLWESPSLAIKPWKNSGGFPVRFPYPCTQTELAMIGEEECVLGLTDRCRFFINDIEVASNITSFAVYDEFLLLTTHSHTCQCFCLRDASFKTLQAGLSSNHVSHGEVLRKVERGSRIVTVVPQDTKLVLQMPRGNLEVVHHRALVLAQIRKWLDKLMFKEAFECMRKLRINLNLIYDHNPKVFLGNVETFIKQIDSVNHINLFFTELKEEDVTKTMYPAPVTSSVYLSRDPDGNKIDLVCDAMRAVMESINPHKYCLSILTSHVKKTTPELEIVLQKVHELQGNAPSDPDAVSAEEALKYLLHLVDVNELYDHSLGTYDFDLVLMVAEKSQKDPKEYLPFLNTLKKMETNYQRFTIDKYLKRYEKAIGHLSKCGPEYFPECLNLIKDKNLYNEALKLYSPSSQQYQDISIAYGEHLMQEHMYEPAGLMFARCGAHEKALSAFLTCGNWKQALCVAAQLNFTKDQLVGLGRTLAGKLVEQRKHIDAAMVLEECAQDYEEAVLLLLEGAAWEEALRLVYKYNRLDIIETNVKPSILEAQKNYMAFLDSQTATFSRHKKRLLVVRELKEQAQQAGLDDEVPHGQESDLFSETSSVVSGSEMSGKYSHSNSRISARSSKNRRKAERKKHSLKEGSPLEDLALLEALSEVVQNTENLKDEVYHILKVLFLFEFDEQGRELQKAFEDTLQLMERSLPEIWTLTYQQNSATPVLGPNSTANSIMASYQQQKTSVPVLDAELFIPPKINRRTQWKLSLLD
UniProt Q6IA86: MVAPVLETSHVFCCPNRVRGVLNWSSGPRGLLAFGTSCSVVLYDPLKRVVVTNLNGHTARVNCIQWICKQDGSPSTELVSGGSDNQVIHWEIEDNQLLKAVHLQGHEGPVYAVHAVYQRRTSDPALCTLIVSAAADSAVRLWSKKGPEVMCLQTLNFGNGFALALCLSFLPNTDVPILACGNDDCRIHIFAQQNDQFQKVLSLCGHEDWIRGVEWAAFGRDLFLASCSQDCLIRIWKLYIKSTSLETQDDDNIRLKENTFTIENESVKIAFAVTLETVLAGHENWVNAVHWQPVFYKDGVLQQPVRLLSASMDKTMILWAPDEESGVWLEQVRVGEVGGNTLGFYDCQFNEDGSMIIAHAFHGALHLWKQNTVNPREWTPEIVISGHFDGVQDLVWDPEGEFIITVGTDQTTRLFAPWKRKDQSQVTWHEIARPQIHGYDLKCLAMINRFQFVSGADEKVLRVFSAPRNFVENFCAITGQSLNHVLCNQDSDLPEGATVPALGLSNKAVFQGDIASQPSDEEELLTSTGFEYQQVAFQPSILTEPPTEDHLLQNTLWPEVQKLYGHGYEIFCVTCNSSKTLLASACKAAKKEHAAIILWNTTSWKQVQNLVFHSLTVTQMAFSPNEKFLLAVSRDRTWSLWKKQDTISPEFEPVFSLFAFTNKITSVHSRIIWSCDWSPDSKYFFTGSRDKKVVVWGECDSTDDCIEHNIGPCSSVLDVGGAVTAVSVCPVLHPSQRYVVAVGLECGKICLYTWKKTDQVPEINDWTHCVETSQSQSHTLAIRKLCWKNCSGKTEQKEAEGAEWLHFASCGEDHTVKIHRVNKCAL

What was measured:
[1] = target: T1, Mus musculus Elp3 (Mus musculus) (UniProt Q9CZX0); test: cryo-EM structure; MmElp123 without tRNA (4.0 Å) and with in vitro transcribed mouse tRNA Arg UCU (4.35 Å); both purified
T1 sequence: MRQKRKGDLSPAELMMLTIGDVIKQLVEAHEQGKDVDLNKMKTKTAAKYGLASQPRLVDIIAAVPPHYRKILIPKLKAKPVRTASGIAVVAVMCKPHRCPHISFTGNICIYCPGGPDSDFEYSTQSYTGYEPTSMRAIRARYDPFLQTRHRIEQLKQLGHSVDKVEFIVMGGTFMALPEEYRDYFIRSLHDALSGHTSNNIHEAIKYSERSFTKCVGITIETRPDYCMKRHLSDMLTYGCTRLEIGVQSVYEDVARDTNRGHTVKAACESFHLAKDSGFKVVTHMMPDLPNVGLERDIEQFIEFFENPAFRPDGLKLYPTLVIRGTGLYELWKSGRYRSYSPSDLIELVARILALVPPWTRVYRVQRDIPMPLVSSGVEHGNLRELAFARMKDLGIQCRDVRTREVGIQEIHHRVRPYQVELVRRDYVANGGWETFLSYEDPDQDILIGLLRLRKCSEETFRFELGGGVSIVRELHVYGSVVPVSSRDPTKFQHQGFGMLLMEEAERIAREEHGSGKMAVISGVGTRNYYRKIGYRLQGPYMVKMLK

[2] = target: T1, Mus musculus Elp3 (Mus musculus); test: co-purification (affinity chromatography and SEC); mouse and human subcomplexes co-expressed in insect cells; Elp123 by Twin-Strep-tag on Elp3 (StrepTrap), heparin, Superose 6; Elp456 by protein A on Elp6 (IgG Sepharose, TEV elution), Superose 6
[3] = target: T2, Mus musculus Elp1 (Mus musculus) (UniProt Q7TT37); test: cryo-EM structure; MmElp123 without tRNA (4.0 Å) and with in vitro transcribed mouse tRNA Arg UCU (4.35 Å); both purified
T2 sequence: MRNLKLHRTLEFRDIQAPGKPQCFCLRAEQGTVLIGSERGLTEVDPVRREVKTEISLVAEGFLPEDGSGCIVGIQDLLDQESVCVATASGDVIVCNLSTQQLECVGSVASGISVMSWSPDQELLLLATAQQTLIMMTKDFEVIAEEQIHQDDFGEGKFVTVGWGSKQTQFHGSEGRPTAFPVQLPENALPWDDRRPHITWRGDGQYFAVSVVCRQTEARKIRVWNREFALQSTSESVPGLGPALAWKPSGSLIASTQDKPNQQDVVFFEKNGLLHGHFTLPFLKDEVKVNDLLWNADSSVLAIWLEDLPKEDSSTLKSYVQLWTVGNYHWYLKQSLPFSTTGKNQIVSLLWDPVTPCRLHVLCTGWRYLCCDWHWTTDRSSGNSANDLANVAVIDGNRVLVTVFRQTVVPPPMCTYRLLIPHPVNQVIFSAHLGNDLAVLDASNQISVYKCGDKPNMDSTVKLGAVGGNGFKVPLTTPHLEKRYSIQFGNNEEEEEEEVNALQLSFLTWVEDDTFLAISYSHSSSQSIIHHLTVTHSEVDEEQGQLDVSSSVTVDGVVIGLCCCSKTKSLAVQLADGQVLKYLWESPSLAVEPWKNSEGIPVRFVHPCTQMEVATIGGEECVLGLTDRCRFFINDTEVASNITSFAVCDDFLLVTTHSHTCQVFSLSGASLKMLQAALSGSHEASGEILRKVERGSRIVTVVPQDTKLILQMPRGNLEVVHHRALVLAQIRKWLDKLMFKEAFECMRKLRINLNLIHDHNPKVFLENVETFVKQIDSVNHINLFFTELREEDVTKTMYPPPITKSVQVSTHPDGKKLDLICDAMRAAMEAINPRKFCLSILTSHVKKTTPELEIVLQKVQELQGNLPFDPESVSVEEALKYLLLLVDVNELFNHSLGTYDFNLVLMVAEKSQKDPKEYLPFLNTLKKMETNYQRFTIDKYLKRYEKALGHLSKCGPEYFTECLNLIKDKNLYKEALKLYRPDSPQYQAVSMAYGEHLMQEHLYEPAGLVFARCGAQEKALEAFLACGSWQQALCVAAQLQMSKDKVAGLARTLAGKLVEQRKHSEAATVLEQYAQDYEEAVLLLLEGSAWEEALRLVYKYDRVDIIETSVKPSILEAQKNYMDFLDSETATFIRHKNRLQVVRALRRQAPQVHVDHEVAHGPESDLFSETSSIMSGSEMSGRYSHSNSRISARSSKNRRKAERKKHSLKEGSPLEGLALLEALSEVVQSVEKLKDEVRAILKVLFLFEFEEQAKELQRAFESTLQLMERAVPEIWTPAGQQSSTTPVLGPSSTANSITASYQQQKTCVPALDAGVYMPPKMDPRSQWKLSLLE

[4] = target: Homo sapiens Elp123 subcomplex, wild type (Homo sapiens) (UniProt O95163+Q6IA86+Q9H9T3); test: pull-down; 10 μg bait, 20 μg prey; Elp123 on StrepTactin Sepharose by Twin-Strep-tagged Elp3, or Elp456 on anti-DYKDDDDK resin by FLAG-tagged Elp6; 30-60 min at 4°C; washes in 20 mM HEPES pH 7.5, 100 mM NaCl, 1 mM DTT, 0.05% Tween 20; SDS-PAGE with Coomassie or silver stain; also with ATP and bulk tRNA; both purified

binding [1]: binds | binding [2]: binds
B1: Mus musculus Elp2 (protein, UniProt Q91WG4 1-831)
chain: MVSSVLEVSHVFCCPNRVRGALSWNTGPGGLLAFGTSCSVVLYDPQKKVVITNLNGHTARVNCLQWIRTEDGSPSNELVSGGSDNRVIHWELENNQVLKSVRLQGHEGPVCAVHAIYQSGPSEGEQHALIASAASDSTVRIWSKKGSEVKYLQTLSFRDGFVLSVCLAILPGTNVPVLACGDDDCRIHLYIQQDDQFQKALSLCGHEDWIRGVEWATFGRDLFLASCSQDCLIRIWRLYMKPASFETKDGSLRLKENTFTIKDGGVRTTVAVTLETVLAGHENWVNAVHWQPSFYKDGVLQQPVRLLSASMDKTMILWAPDEESGVWLEQVRVGEVGGNTLGFYDCQFGENGTMIIAHAFHGALHLWKQSTVNPRQWAPEIVISGHFDGVQDLMWDPEGEFIITTSTDQTTRLFAPWKKKDQKDRSQVTWHEIARPQIHGYNIKCLAMIDRFQFVSGADEKVLRVFSAPRNFVENFSVISRQSLSHMLCDDQDLPEGATVPALGLSNKALFQGDIASQPFEEDELISPAFGSPQVTFQPAVLNEPPTEDHLLQNTLWPEIQKLYGHGYEIVCVACNNSKTLLASACKASQKEHAAIILWSTASWKQVQSLAFHTLTVTQMTFSPDDKFLLAVSRDRTWSLWKRQDATSSEFDPFFSLFAFTNKITSVHSRIIWSCDWSPDNKYFFTGSRDKKVVVWGECKSSHNPMEHPIRPCSSILDVGSSVTAVSVCPVLNPAQRYIVAIGLESGKICIYSWNKTNQEINDWTSCVETNPSQSHSLGIRRLCWKSCSDDDDDDDDDDTEQSEEGPEWLHFASCGEDHTVKIYRVNRRAL

binding [3]: binds
B2: Mus musculus Elp3 (enzyme, UniProt Q9CZX0 1-547)
chain: T1 sequence

binding [4]: binds
B3: Homo sapiens Elp456 subcomplex with Elp5 Δ1–9 (complex, UniProt Q96EB1 1-424; Q8TE02 10-300; Q0PNE2 1-266)
chain 1: MAAVATCGSVAASTGSAVATASKSNVTSFQRRGPRASVTNDSGPRLVSIAGTRPSVRNGQLLVSTGLPALDQLLGGGLAVGTVLLIEEDKYNIYSPLLFKYFLAEGIVNGHTLLVASAKEDPANILQELPAPLLDDKCKKEFDEDVYNHKTPESNIKMKIAWRYQLLPKMEIGPVSSSRFGHYYDASKRMPQELIEASNWHGFFLPEKISSTLKVEPCSLTPGYTKLLQFIQNIIYEEGFDGSNPQKKQRNILRIGIQNLGSPLWGDDICCAENGGNSHSLTKFLYVLRGLLRTSLSACIITMPTHLIQNKAIIARVTTLSDVVVGLESFIGSERETNPLYKDYHGLIHIRQIPRLNNLICDESDVKDLAFKLKRKLFTIERLHLPPDLSDTVSRSSKMDLAESAKRLGPGCGMMAGGKKHLDF
chain 2: GLVLLRDSVEWEGRSLLKALVKKSALCGEQVHILGCEVSEEEFREGFDSDINNRLVYHDFFRDPLNWSKTEEAFPGGPLGALRAMCKRTDPVPVTIALDSLSWLLLRLPCTTLCQVLHAVSHQDSCPGDSSSVGKVSVLGLLHEELHGPGPVGALSSLAQTEVTLGGTMGQASAHILCRRPRQRPTDQTQWFSILPDFSLDLQEGPSVESQPYSDPHIPPVDPTTHLTFNLHLSKKEREARDSLILPFQFSSEKQQALLRPRPGQATSHIFYEPDAYDDLDQEDPDDDLDI
chain 3: MFVELNNLLNTTPDRAEQGKLTLLCDAKTDGSFLVHHFLSFYLKANCKVCFVALIQSFSHYSIVGQKLGVSLTMARERGQLVFLEGLKSAVDVVFQAQKEPHPLQFLREANAGNLKPLFEFVREALKPVDSGEARWTYPVLLVDDLSVLLSLGMGAVAVLDFIHYCRATVCWELKGNMVVLVHDSGDAEDEENDILLNGLSHQSHLILRAEGLATGFCRDVHGQLRILWRRPSQPAVHRDQSFTYQYKIQDKSVSFFAKGMSPAVL
